Patent US20230301895A1 (NOVABIOTICS LIMITED, priority 2020, published 2023)

Experiment: peptide made by a vendor
Settings: whole synthesis

Question: Which “purity (crude or final not stated)” value does the source give for cyclic R-R-R-R-R-R-R here?
Answer: 97.93% purity
